Measurements from paper PMC11016466.
No constants are given. Whether binding was seen depends on the method and setting. Binding seen in cells or lysates may run through a third protein. Here binding means that the protein was enriched with, or labelled near, the bait; the list need not be complete. A no says only that the protein was not detected with the bait.

Target: T1, Ran GTPase activating protein 1 (human (endogenous in DLD1)) (UniProt P46060)
T1 sequence: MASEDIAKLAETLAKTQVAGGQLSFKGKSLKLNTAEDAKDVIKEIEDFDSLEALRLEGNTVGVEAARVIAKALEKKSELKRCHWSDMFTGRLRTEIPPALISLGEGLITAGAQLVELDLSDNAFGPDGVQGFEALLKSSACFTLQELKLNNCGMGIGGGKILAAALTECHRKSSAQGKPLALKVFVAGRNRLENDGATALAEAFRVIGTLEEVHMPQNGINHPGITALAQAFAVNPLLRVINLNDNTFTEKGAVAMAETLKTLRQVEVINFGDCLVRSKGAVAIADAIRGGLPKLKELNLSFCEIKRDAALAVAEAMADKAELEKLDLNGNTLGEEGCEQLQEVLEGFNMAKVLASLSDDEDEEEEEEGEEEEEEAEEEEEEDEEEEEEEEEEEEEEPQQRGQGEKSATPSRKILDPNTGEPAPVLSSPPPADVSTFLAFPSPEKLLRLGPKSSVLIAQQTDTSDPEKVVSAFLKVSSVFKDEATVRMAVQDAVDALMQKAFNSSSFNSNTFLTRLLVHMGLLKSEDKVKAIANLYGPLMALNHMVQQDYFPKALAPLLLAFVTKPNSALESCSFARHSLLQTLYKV
Experiment: affinity purification with mass spectrometry; co-immunoprecipitation of RanGAP1 from CRC cells followed by protein mass spectrometry; candidates combined with label-free LC/MS proteomics; protocol by ref. 10

binding: no binding
B1: cellular retinoic acid-binding protein 2 (protein, UniProt P29373 1-138)
chain: MPNFSGNWKIIRSENFEELLKVLGVNVMLRKIAVAAASKPAVEIKQEGDTFYIKTSTTVRTTEINFKVGEEFEEQTVDGRPCKSLVKWESENKMVCEQKLLKGEGPKTSWTRELTNDGELILTMTADDVVCTRVYVRE
